## Primary screen of a compound library

By UniProt entry, the sequences of proteins in these tests, tags left out.
UniProt E9BF75, entry or part of it: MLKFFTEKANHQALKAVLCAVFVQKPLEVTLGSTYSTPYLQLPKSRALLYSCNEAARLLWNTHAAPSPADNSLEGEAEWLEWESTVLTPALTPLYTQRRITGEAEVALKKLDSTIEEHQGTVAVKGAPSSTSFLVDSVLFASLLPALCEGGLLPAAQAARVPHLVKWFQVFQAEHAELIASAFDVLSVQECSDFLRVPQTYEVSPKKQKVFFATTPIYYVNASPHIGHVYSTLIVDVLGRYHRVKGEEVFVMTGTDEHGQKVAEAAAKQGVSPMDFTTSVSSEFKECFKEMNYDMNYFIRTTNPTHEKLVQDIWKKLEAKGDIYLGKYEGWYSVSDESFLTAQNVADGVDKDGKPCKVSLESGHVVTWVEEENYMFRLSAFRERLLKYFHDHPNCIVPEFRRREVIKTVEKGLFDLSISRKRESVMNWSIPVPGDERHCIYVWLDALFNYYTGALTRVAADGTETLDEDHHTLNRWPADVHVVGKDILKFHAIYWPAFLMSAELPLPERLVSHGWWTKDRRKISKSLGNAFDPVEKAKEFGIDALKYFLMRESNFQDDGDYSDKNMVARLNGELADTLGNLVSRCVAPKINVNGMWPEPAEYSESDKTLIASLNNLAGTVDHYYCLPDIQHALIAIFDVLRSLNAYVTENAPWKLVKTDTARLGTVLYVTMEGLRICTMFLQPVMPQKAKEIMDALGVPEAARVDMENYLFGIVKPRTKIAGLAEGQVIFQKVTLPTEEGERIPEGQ

Data taken from ChEMBL document CHEMBL3988442, “University of Dundee, Small-Polar-MMV Screening Library” (2021).

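Methionyl-tRNA synthetase (putative), Leishmania donovani (UniProt E9BF75). Primary screen of methionyl-tRNA synthetase; the read-out is not stated. The test concentration is not given. Values are per cent inhibition. Size under these conditions: about 68,000 compounds, about 24 of them at 50% or above in at least one test.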

All values are in %. The controls that fix the scale are not given in the record; negative values are as filed. This is an unselected part of the compounds tested.

| # | Compound | inhibition |
|---|---|---|
| 1 | `Cc1cc(C)c2cc(C(=O)N3CCNC(=O)C3)[nH]c2c1` | 8.13 |
| 2 | `CCc1ccc(S(=O)(=O)N2CCCn3ncnc32)s1` | 15.76 |
| 3 | `Cc1ccc(O)c(C(=O)NCCCS(=O)(=O)Cc2ccccc2)c1` | 6.964 |
| 4 | `Cc1ccc(CCCC(=O)N2CCCC(CS(N)(=O)=O)C2)s1` (configuration not stated) | 9.913 |
| 5 | `N#Cc1ccc(-c2nnc(CSCCN3CCOCC3)o2)cc1` | 26.36 |
| 6 | `CS(=O)(=O)Cc1ccc(C(=O)NCC2Cc3ccccc3O2)cc1` (configuration not stated) | 12.37 |
| 7 | `CC[C@@H](CO)NC(=O)c1cccc(CCC(C)(C)O)c1` | 12.06 |
| 8 | `Cn1cc(-c2csc(N3CCOCC3)n2)cn1` | 20.35 |
| 9 | `Cc1nn(C)c2nc(N3CCNC(=O)C3C(C)C)sc12` (configuration not stated) | 7.796 |
| 10 | `O=C(NCC1CCS(=O)(=O)C1)N1CCN(c2cnccn2)CC1` (configuration not stated) | 13.41 |
| 11 | `COc1ccccc1CC1CCCN(C(=O)c2cc[nH]n2)C1` (configuration not stated) | 13.42 |
| 12 | `CS(=O)(=O)N1CCc2sc(C(=O)NCc3ccccc3)cc21` | -1.37 |
| 13 | `COc1ccc2c(c1)OCC(Cc1cc(N3CCCC3)cnn1)C2` (configuration not stated) | 25 |
| 14 | `Cc1ccc(-c2cn3c(n2)CO[C@@H](CNCc2cnn(C)c2)C3)cc1` | -0.339 |
| 15 | `Cc1nc(O)cc(CN2CCC=C(CN(C)C(=O)c3ccco3)C2)n1` | 5.498 |
| 16 | `Cc1cc(C(F)(F)F)n2nc(C3CCN(S(C)(=O)=O)CC3)cc2n1` | 7.764 |
| 17 | `c1cnc(N2CCC3(CCN(CC4CCOC4)CC3)C2)nc1` (configuration not stated) | 10.62 |
| 18 | `CC(NC(=O)NCc1ccccc1F)(C(=O)O)c1ccco1` (configuration not stated) | 12.57 |
| 19 | `CCOc1ccc(Cl)c(C(=O)N2CCN(CC(O)CC)CC2)n1` (configuration not stated) | 15.1 |
| 20 | `Cc1ccccc1CC(=O)N(C)C1CCCC1` | 11.89 |
| 21 | `CC(C(=O)N(Cc1ccc(F)cc1)CC(F)(F)F)S(C)(=O)=O` (configuration not stated) | 15.06 |
| 22 | `CCCOc1cc(Cl)c(CN2CCNC(C(=O)NC3CC3)C2)cc1OC` (configuration not stated) | 11.06 |
| 23 | `Cc1csc(C(Cc2ccsc2)NC(=O)CN(C)Cc2ccccn2)n1` (configuration not stated) | 17.92 |
| 24 | `CN1CC[C@H]2[C@H](C[C@@H](CN3CCCC3)N2c2nccs2)C1` | 15.93 |
| 25 | `CN(C)C(=O)c1cc2c(s1)CCN(C(=O)CCCN1CCCCC1)C2` | 14.12 |
| 26 | `N#CCCN(C(=O)CN1CCCC1C1CCCCC1)c1ccccc1` (configuration not stated) | 12.38 |
| 27 | `COc1cc2cc(C(=O)O)n(C)c2cc1OC` | 17.84 |
| 28 | `COc1ccc(C2=CCN(C(=O)CN(C)Cc3ccoc3)CC2)cc1` | 7.981 |
| 29 | `CCCc1cc(N2CCCCC2Cn2cc(C)cn2)n2ncnc2n1` (configuration not stated) | 3.169 |
| 30 | `COc1ccc(C)cc1-n1cnnc1C1CC(=O)N(C)C1` (configuration not stated) | 10.87 |
| 31 | `Nc1ncccc1CN1CCOCC1CC(=O)NCc1ccccn1` (configuration not stated) | -0.5076 |
| 32 | `CC(NCC(=O)NCC(=O)Nc1ccc(F)cc1)c1cccs1` (configuration not stated) | 5.573 |
| 33 | `CCc1cnc(N2C[C@H]3C[C@H](C(=O)NCC(C)C)[C@@H](C2)O3)nc1` | 15.96 |
| 34 | `O=C(NCc1ccc2c(c1)OCO2)N1CCCC2(C1)OCCO2` | -5.108 |
| 35 | `Cc1cc(C(=O)NC2CCc3nc(C)cn3C2)[nH]n1` (configuration not stated) | 13.29 |
| 36 | `CC(=O)N1CCC(c2ncc(C(=O)Nc3ccccc3)c(C)n2)CC1` | 6.395 |
| 37 | `CN(C)CCNCC1CCOC(C)(C)C1` (configuration not stated) | 4.636 |
| 38 | `Cc1cc(C)cc(OCC(=O)NC2CCN(S(C)(=O)=O)CC2)c1` | 1.742 |
| 39 | `COC(=O)C(CNC(=O)Nc1nncs1)Cc1ccc(F)cc1` (configuration not stated) | 2.857 |
| 40 | `Cc1nc(CN2C(=O)CC3(CCN(C(N)=O)CC3)c3ccccc32)cs1` | 18.12 |
| 41 | `CCn1cc(C(=O)Nc2cc(C)ccc2C)cn1` | 4.211 |
| 42 | `Cc1ccoc1C(=O)N1CCc2ccc(=O)n(CCN(C)C)c2CC1` | 10.66 |
| 43 | `COCCCC(=O)N(CCC(=O)O)Cc1ccc(F)c(F)c1` | 4.065 |
| 44 | `CCOCCCNC(=O)c1ccccc1S(C)(=O)=O` | 8.451 |
| 45 | `CCc1n[nH]c(C2CN(Cc3csc(C4CCCC4)n3)CCO2)n1` (configuration not stated) | 1.989 |
| 46 | `COc1c(CC2CC(CO)=NO2)c(Br)c2c(c1OC)OCO2` (configuration not stated) | 16.15 |
| 47 | `Cc1noc(C)c1CN1CCc2ncc(CN(C)C)n2CC1` | 8.377 |
| 48 | `CC(C)(C)C(=O)N1CC(=O)N(Cc2ccco2)CC(O)C1` (configuration not stated) | 7.397 |
| 49 | `O=C(c1ccc(CNC2CCSC2)cc1)N1CCCC1` (configuration not stated) | 15.22 |
| 50 | `O=C(c1ccnn1-c1ccc2ccccn12)N1CCCC1` | 11.37 |
| 51 | `CCN(CC)c1ccc(C(=O)N2CCCC2Cn2cc(C)cn2)cn1` (configuration not stated) | 12.22 |
| 52 | `Cc1c(C(=O)O)sc2nc(Cc3ccccc3)nc(N)c12` | 3.073 |
| 53 | `CCCn1nccc1-c1nccnc1CC1CCN(C(C)=O)C1` (configuration not stated) | 21.27 |
| 54 | `Cc1ccc(CNC2CC3(CCN(CCO)CC3)c3ccccc32)s1` (configuration not stated) | 5.195 |
| 55 | `Cc1cc(C)n(CC2CN(CC(=O)Nc3c(C)n[nH]c3C)CCO2)n1` (configuration not stated) | 10.93 |
| 56 | `CCn1c(C2CCNCC2)nn(CCn2ccc(C)n2)c1=O` | 10.79 |
| 57 | `O=C(c1ccc2[nH]nnc2c1)N1C[C@H](O)[C@]2(CCCO2)C1` | 6.667 |
| 58 | `Cc1cnn(C2CCCN(C(=O)CCCNc3ncccn3)C2)c1` (configuration not stated) | 10.46 |
| 59 | `CN(c1ccc(F)c(F)c1)S(=O)(=O)c1cc(C(=O)O)cs1` | 7.19 |
| 60 | `COC1COC2(CCN(Cc3ccccc3F)CC2)C1` (configuration not stated) | 17.58 |

The first 5 entries again:

Cc1cc(C)c2cc(C(=O)N3CCNC(=O)C3)[nH]c2c1 gave 8.13%.
CCc1ccc(S(=O)(=O)N2CCCn3ncnc32)s1 gave 15.76%.
Cc1ccc(O)c(C(=O)NCCCS(=O)(=O)Cc2ccccc2)c1 gave 6.964%.
Cc1ccc(CCCC(=O)N2CCCC(CS(N)(=O)=O)C2)s1 (configuration not stated) gave 9.913%.
N#Cc1ccc(-c2nnc(CSCCN3CCOCC3)o2)cc1 gave 26.36%.